PubChem BioAssay AID1224828, NIAID, 2016
In all, the deposit lists about 17,000 reagents; this is an unselected part. 762 of all reagents (4.5%) count as active. 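Active calls include both raised and lowered p65 entry, mostly lowered; wells with fewer than 50 cells lack a z-score.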 Raw values are not corrected between plates. The numbers tell different reagents against one gene apart. Reagent sequences are not shown.

Test: 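Regulators linking TLR4 signalling to p65 nuclear translocation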 (primary screen)
Cell system: mouse RAW264.7 G9 macrophage reporter cells (GFP-p65, Tnf promoter-mCherry)
Reagents: siRNA pool against mouse genes, 100 nM
Timing: 2 days siRNA transfection, then 40 min LPS before fixation
Challenge: LPS (Salmonella minnesota R595) at 10 ng/ml
Measured: 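Imaged p65 nuclear translocation ratio, normalised to the plate median, converted to robust z-scores and averaged across two replicates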
Scale: p65 translocation robust z-score: higher = more nuclear NF-kappaB p65 after LPS than the plate median; nuclear/cytoplasmic p65 ratio: higher = more nuclear NF-kappaB p65
Hit rule: 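Called active when z exceeds 3.3 or falls under -1.56 (median of Tlr4 controls), giving activity score of at least 50; no calls for control wells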
Calls: active = hit (p65 shift raised or lowered); inactive = no clear change

gene | pool no. | p65 translocation robust z-score | nuclear/cytoplasmic p65 ratio, rep 1 | nuclear/cytoplasmic p65 ratio, rep 2 | low cell count flag | outcome
Slc15a4 | 1 | 0.07 | 1.46 | 1.22 | enough cells to score | inactive
Polr1f (RNA polymerase I subunit F) | 1 | 2.66 | 1.74 | 1.49 | enough cells to score | inactive
Gsk3b (glycogen synthase kinase 3 beta) | 1 | 1.38 | 1.84 | 1.62 | enough cells to score | inactive
Fat4 (FAT atypical cadherin 4) | 1 | -1.76 | 1.21 | 1.28 | enough cells to score | active
Fat4 (FAT atypical cadherin 4) | 2 | – | 1.25 | 1.21 | fewer than 50 cells per well; well left out of scoring | inactive
Pcdhb8 (protocadherin beta 8) | 1 | – | 1.1 | 1.33 | fewer than 50 cells per well; well left out of scoring | inactive
Apoc1 (apolipoprotein C-I) | 1 | 0.05 | 1.66 | 1.6 | enough cells to score | inactive
Btg1 (BTG anti-proliferation factor 1) | 1 | -0.14 | 1.61 | 1.58 | enough cells to score | inactive
Svbp (small vasohibin binding protein) | 1 | 0.48 | 1.4 | 1.59 | enough cells to score | inactive
Rbm4 (RNA binding motif protein 4) | 1 | 1.86 | 1.64 | 1.45 | enough cells to score | inactive
St8sia6 (ST8 alpha-N-acetyl-neuraminide alpha-2,8-sialyltransferase 6) | 1 | 1.09 | 1.59 | 1.34 | enough cells to score | inactive
Or14j6 (olfactory receptor family 14 subfamily J member 6) | 1 | 0.53 | 1.71 | 1.47 | enough cells to score | inactive
Acot10 (acyl-CoA thioesterase 10) | 1 | 1.39 | 1.7 | 2.02 | enough cells to score | inactive
Il17rb (interleukin 17 receptor B) | 1 | -0.44 | 1.39 | 1.35 | enough cells to score | inactive
Lin7c (lin-7 homolog C, crumbs cell polarity complex component) | 1 | 0.14 | 1.75 | 1.55 | enough cells to score | inactive
Zcrb1 (zinc finger CCHC-type and RNA binding motif 1) | 1 | 0.14 | 1.42 | 1.34 | enough cells to score | inactive
Dot1l (DOT1 like histone lysine methyltransferase) | 1 | – | 1.35 | 1.27 | fewer than 50 cells per well; well left out of scoring | inactive
Sgtb | 1 | 0.93 | 1.45 | 1.43 | enough cells to score | inactive
Pramel3a (PRAME like 3A) | 1 | 1.54 | 1.58 | 1.39 | enough cells to score | inactive
Fhl2 (four and a half LIM domains 2) | 1 | -1.12 | 1.46 | 1.28 | enough cells to score | inactive
Zmat1 (zinc finger, matrin type 1) | 1 | -1.25 | 1.18 | 1.63 | enough cells to score | inactive
Tab1 (TGF-beta activated kinase 1/MAP3K7 binding protein 1) | 1 | -0.18 | 1.42 | 1.32 | enough cells to score | inactive
Nsun3 (NOL1/NOP2/Sun domain family member 3) | 1 | 0.27 | 1.53 | 1.66 | enough cells to score | inactive
Nfib (nuclear factor I/B) | 1 | -0.62 | 1.4 | 1.3 | enough cells to score | inactive
Nfib (nuclear factor I/B) | 2 | -0.62 | 1.36 | 1.3 | enough cells to score | inactive
Mpdz (multiple PDZ domain crumbs cell polarity complex component) | 1 | 0.97 | 1.98 | 1.71 | enough cells to score | inactive
Ccdc40 (coiled-coil domain containing 40) | 1 | 0.8 | 1.71 | 1.96 | enough cells to score | inactive
Klhl18 (kelch-like 18) | 1 | 0.62 | 1.61 | 1.68 | enough cells to score | inactive
Sync (syncoilin) | 1 | -0.23 | 1.33 | 1.09 | enough cells to score | inactive
Krt82 (keratin 82) | 1 | -0.38 | 1.47 | 1.41 | enough cells to score | inactive
Or9s23 (olfactory receptor family 9 subfamily S member 23) | 1 | -1.35 | 1.39 | 1.26 | enough cells to score | inactive
Fam78a (family with sequence similarity 78, member A) | 1 | -0.03 | 1.35 | 1.55 | enough cells to score | inactive
Rab31 (RAB31, member RAS oncogene family) | 1 | 1.01 | 1.69 | 1.84 | enough cells to score | inactive
Nfyc (nuclear transcription factor-Y gamma) | 1 | 0.24 | 1.44 | 1.49 | enough cells to score | inactive
Tpd52 (tumor protein D52) | 1 | -0.86 | 1.47 | 1.33 | enough cells to score | inactive
Fbp1 (fructose bisphosphatase 1) | 1 | 1.15 | 1.64 | 1.59 | enough cells to score | inactive
Pigz (phosphatidylinositol glycan anchor biosynthesis, class Z) | 1 | 0.29 | 1.62 | 1.39 | enough cells to score | inactive
Tbc1d1 (TBC1 domain family, member 1) | 1 | – | 1.25 | 1.12 | fewer than 50 cells per well; well left out of scoring | inactive
Cd69 (CD69 antigen) | 1 | -1.3 | 1.28 | 1.21 | enough cells to score | inactive
Tti2 (TELO2 interacting protein 2) | 1 | 1.36 | 1.74 | 2.12 | enough cells to score | inactive
Gbp3 (guanylate binding protein 3) | 1 | -1.19 | 1.37 | 1.34 | enough cells to score | inactive
Hook2 (hook microtubule tethering protein 2) | 1 | 0.05 | 1.68 | 1.53 | enough cells to score | inactive
Tppp (tubulin polymerization promoting protein) | 1 | – | 1.03 | 1.16 | fewer than 50 cells per well; well left out of scoring | inactive
Usp37 (ubiquitin specific peptidase 37) | 1 | -0.2 | 1.47 | 1.7 | enough cells to score | inactive
Pcgf5 (polycomb group ring finger 5) | 1 | – | 1.43 | 1.63 | fewer than 50 cells per well; well left out of scoring | inactive
Rcc1 (regulator of chromosome condensation 1) | 1 | -0.37 | 1.38 | 1.36 | enough cells to score | inactive
Stam | 1 | 0.78 | 1.66 | 1.67 | enough cells to score | inactive
Gm5114 (predicted gene 5114) | 1 | – | 1.41 | 1.08 | fewer than 50 cells per well; well left out of scoring | inactive

Continued (5 carried over from the part before).
gene | pool no. | p65 translocation robust z-score | nuclear/cytoplasmic p65 ratio, rep 1 | nuclear/cytoplasmic p65 ratio, rep 2 | low cell count flag | outcome
Usp37 (ubiquitin specific peptidase 37) | 1 | -0.2 | 1.47 | 1.7 | enough cells to score | inactive
Pcgf5 (polycomb group ring finger 5) | 1 | – | 1.43 | 1.63 | fewer than 50 cells per well; well left out of scoring | inactive
Rcc1 (regulator of chromosome condensation 1) | 1 | -0.37 | 1.38 | 1.36 | enough cells to score | inactive
Stam | 1 | 0.78 | 1.66 | 1.67 | enough cells to score | inactive
Gm5114 (predicted gene 5114) | 1 | – | 1.41 | 1.08 | fewer than 50 cells per well; well left out of scoring | inactive
Phc1 (polyhomeotic 1) | 1 | 0.68 | 1.71 | 1.39 | enough cells to score | inactive
Avpr2 (arginine vasopressin receptor 2) | 1 | -1.48 | 1.28 | 1.38 | enough cells to score | inactive
Cyp3a16 (cytochrome P450, family 3, subfamily a, polypeptide 16) | 1 | -0.09 | 1.66 | 1.66 | enough cells to score | inactive
Rfng (RFNG O-fucosylpeptide 3-beta-N-acetylglucosaminyltransferase) | 1 | 0.48 | 1.45 | 1.3 | enough cells to score | inactive
Gad2 (glutamic acid decarboxylase 2) | 1 | 0.9 | 1.55 | 1.48 | enough cells to score | inactive
Kiss1r (KISS1 receptor) | 1 | -1.42 | 1.3 | 1.38 | enough cells to score | inactive
Tlk2 (tousled-like kinase 2 (Arabidopsis)) | 1 | -0.41 | 1.69 | 1.28 | enough cells to score | inactive
Arhgap29 (Rho GTPase activating protein 29) | 1 | -0.34 | 1.6 | 1.52 | enough cells to score | inactive
A830018L16Rik (RIKEN cDNA A830018L16 gene) | 1 | 3.16 | 1.91 | 1.84 | enough cells to score | inactive
Or9s13 (olfactory receptor family 9 subfamily S member 13) | 1 | -1.8 | 1.43 | 1.19 | enough cells to score | active
Cyp4f16 (cytochrome P450, family 4, subfamily f, polypeptide 16) | 1 | -0.29 | 1.55 | 1.72 | enough cells to score | inactive
Mbd4 (methyl-CpG binding domain protein 4) | 1 | -0.27 | 1.36 | 1.35 | enough cells to score | inactive
Atp1b1 (ATPase, Na+/K+ transporting, beta 1 polypeptide) | 1 | -2.18 | 1.2 | 1.29 | enough cells to score | active
Ccdc63 (coiled-coil domain containing 63) | 1 | – | 1.5 | 1.36 | fewer than 50 cells per well; well left out of scoring | inactive
Ago2 (argonaute RISC catalytic subunit 2) | 1 | -0.55 | 1.34 | 1.34 | enough cells to score | inactive
Fgr (FGR proto-oncogene, Src family tyrosine kinase) | 1 | 0.89 | 1.83 | 1.39 | enough cells to score | inactive
Fam98a (family with sequence similarity 98, member A) | 1 | 1.55 | 1.37 | 1.67 | enough cells to score | inactive
Rplp2 (ribosomal protein lateral stalk subunit P2) | 1 | -0.7 | 1.33 | 1.13 | enough cells to score | inactive
Or5an9 (olfactory receptor family 5 subfamily AN member 9) | 1 | – | 1.27 | 1.06 | fewer than 50 cells per well; well left out of scoring | inactive
Trim69 (tripartite motif-containing 69) | 1 | 0.74 | 1.57 | 1.3 | enough cells to score | inactive
Oaz1 (ornithine decarboxylase antizyme 1) | 1 | -0.22 | 1.47 | 1.34 | enough cells to score | inactive
Clcnka (chloride channel, voltage-sensitive Ka) | 1 | -1.06 | 1.2 | 1.24 | enough cells to score | inactive
Hif3a (hypoxia inducible factor 3, alpha subunit) | 1 | 0.68 | 1.37 | 1.48 | enough cells to score | inactive
Sf3a2 (splicing factor 3a, subunit 2) | 1 | – | 1.2 | 1.17 | fewer than 50 cells per well; well left out of scoring | inactive
Arhgap18 (Rho GTPase activating protein 18) | 1 | 0.8 | 1.73 | 1.61 | enough cells to score | inactive
Dst (dystonin) | 1 | 1.7 | 1.7 | 1.57 | enough cells to score | inactive
Edil3 (EGF-like repeats and discoidin I-like domains 3) | 1 | 0.35 | 1.59 | 1.4 | enough cells to score | inactive
